{"sequences": {"note": "Amino acid sequences for entries named in this document (tags omitted). A change or cut given only in a name is not applied to a line headed by its entry.", "UniProt P0DMV8": "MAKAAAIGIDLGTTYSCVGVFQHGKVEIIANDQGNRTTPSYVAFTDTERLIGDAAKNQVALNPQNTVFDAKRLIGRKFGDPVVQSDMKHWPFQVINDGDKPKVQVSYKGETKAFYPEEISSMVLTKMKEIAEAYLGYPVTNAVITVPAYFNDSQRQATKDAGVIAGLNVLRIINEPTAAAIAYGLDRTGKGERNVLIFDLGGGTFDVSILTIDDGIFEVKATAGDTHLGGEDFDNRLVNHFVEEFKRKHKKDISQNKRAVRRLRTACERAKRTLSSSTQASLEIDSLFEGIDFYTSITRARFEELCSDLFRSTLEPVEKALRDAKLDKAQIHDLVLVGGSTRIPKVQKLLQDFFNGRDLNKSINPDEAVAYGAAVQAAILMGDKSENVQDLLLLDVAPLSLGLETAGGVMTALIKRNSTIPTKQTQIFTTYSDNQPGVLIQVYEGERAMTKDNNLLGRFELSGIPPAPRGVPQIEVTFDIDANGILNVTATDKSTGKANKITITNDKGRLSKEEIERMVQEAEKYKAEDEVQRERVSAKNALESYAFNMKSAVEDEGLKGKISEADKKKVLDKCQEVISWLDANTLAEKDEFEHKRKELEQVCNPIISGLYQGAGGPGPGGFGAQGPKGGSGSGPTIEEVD"}, "source": "paper PMC5059642", "target": "T1, FLAG-ARD1 (human) (UniProt P41227)", "T1 sequence": "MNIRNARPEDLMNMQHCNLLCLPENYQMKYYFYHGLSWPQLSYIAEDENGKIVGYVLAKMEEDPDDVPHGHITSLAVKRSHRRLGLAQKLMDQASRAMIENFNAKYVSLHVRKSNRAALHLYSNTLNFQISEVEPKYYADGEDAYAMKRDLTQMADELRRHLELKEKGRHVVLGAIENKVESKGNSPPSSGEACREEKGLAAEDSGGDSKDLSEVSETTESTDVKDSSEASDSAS", "experiment": "co-IP; FLAG-ARD1 precipitated from HEK293T cells; co-precipitation of Myc-Hsp70 or Myc-Hsc70 by western blotting", "note": "No constants are given. Whether binding was seen depends on the method and setting. Binding seen in cells or lysates may run through a third protein. Binding calls can cover weak binding; strength is not graded here. Sequences can lack the tags named with a protein.", "data": [{"substance": "Myc-Hsp70 WT (from UniProt P0DMV8)", "values": [{"measurement": "binding", "value": "binds"}]}]}
